Data published in paper PMC5972886.
No constants are given. Whether binding was seen depends on the method and setting. In cells and extracts the contact can be indirect. Some binding calls cover weakened binding; strength is not graded here.

Protein sequences, listed by entry. Tags and fused reporters are not part of them.
UniProt P31941: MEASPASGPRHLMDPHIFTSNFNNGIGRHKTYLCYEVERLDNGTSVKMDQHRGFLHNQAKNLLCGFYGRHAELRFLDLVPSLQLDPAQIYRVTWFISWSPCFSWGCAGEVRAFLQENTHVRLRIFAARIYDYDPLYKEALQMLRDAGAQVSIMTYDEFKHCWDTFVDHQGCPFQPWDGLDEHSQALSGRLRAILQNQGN
UniProt Q13617: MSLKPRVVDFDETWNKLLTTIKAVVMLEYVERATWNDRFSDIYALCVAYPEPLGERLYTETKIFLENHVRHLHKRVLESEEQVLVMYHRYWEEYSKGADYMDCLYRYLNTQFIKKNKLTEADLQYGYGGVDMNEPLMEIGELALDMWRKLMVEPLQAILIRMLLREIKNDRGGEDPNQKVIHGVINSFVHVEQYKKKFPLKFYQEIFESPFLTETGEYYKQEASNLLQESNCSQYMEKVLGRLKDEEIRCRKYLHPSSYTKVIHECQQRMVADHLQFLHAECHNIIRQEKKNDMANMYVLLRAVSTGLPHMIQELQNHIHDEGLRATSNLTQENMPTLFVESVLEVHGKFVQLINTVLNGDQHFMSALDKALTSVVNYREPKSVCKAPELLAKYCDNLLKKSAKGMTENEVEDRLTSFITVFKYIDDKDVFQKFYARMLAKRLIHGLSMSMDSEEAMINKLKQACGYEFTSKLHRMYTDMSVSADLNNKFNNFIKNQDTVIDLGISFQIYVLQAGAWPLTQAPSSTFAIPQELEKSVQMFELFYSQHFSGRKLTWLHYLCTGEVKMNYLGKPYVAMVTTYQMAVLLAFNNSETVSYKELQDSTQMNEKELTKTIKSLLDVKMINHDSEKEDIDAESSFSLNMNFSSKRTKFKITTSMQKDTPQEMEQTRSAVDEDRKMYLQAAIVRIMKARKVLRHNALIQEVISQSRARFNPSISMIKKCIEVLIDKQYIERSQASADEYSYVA
UniProt P03129: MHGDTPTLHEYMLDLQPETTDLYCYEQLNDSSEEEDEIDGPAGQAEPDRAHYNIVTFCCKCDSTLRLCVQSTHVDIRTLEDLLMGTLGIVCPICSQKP
UniProt P06788: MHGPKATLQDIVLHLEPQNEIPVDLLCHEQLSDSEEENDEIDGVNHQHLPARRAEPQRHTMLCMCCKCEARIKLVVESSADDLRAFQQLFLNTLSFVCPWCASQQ

Assays:
[1] = target: hemagglutinin (HA)-tagged APOBEC3A (human) (UniProt P31941); experiment: co-IP
[2] = target: V5-tagged CUL2 (cullin 2) (UniProt Q13617); experiment: co-IP; 293FT cells cotransfected, lysed 72 h posttransfection; lysates precleared with protein A/G agarose beads (4°C, 4 h); CUL-V5 precipitated with 1 μg anti-V5 antibody overnight and protein A/G agarose beads; five washes; Western blot
V5-tagged CUL3 = V5-tagged CUL3 (UniProt Q13618); experiment: as above
[3] = target: V5-tagged CUL2 (cullin 2) (UniProt Q13617); experiment: co-IP

Row | binding [3] | Substance | binding [1] | binding [2] | binding (V5-tagged CUL3)
1 | – | HPV16 E7 (wild type) (from UniProt P03129 1-98) | no binding | binds | –
2 | – | HPV18 E7 (from UniProt P06788 1-105) | – | no binding | binds weakly
3 | binds | hemagglutinin (HA)-tagged APOBEC3A (from UniProt P31941 1-199) | – | – | –
